# Results are given in words; binding and its absence hold for the method and conditions named. Some entries that bind do so weakly or less than the wild type.
# Amino acid sequences for entries named in this document (tags omitted). Residues count along the entry.
# UniProt P04004, residues 20-478: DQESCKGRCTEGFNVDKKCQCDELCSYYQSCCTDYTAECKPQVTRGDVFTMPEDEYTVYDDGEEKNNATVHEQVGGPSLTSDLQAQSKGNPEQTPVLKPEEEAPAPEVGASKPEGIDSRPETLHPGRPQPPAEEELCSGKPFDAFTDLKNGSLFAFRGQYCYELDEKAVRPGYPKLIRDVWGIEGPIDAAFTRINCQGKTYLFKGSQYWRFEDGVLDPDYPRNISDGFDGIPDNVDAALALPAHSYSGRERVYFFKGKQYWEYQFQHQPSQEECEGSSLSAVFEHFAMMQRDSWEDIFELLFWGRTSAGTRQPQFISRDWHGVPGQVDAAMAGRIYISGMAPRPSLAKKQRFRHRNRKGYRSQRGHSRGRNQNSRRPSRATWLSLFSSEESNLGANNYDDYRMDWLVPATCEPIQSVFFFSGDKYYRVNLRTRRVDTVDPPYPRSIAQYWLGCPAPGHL
# UniProt P24821, residues 23-2201: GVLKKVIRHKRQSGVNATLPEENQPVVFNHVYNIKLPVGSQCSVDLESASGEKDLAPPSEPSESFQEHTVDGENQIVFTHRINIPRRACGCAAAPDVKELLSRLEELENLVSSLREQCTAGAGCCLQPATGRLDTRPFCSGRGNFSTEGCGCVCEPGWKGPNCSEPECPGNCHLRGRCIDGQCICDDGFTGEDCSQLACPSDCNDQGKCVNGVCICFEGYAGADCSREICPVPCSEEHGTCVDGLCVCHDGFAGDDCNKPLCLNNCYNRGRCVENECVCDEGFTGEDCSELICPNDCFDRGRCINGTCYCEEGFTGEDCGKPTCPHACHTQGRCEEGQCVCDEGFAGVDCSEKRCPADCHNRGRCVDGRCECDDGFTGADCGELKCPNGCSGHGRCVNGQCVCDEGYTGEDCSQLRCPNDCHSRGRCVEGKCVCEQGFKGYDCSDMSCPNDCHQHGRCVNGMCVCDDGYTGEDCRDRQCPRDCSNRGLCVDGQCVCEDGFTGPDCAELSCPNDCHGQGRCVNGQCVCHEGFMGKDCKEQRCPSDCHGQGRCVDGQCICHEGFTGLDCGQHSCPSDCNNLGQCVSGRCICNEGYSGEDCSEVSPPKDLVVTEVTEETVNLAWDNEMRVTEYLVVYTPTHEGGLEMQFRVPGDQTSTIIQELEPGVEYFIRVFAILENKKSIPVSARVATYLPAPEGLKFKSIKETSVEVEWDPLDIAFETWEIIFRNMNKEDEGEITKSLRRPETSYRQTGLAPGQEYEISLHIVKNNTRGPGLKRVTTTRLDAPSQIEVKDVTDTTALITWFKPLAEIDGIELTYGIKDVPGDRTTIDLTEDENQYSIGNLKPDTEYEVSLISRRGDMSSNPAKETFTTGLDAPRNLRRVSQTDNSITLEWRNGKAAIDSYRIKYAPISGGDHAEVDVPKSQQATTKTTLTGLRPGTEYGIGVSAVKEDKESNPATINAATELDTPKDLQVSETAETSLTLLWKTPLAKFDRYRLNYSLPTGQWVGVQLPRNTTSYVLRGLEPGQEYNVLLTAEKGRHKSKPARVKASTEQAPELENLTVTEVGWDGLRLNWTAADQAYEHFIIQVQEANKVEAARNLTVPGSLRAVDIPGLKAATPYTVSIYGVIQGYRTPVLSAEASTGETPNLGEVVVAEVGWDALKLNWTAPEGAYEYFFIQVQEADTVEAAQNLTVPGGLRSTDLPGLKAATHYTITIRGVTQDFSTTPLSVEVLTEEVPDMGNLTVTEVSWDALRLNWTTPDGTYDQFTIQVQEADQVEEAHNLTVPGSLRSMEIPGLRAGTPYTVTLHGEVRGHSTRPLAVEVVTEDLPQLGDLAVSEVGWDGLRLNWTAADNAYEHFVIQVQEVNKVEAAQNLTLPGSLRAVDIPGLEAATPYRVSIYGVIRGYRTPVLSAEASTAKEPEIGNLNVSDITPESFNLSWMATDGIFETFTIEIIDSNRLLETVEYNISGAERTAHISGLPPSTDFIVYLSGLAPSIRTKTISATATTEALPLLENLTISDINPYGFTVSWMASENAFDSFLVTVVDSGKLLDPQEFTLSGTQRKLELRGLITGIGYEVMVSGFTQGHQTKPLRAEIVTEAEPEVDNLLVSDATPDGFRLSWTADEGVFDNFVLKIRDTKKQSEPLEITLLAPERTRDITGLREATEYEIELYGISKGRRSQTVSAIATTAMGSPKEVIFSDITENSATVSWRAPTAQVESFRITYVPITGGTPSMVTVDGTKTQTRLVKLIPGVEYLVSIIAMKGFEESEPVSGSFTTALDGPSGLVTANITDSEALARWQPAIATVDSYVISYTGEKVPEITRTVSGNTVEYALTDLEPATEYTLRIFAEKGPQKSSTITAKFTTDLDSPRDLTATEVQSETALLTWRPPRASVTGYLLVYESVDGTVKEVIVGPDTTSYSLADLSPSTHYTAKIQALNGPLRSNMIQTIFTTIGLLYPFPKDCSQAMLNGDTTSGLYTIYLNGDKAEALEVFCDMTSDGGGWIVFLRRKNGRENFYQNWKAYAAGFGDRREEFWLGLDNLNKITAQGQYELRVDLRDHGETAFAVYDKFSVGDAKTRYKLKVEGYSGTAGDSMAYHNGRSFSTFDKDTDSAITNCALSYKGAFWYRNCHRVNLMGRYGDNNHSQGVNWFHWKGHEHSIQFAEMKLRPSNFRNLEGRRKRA
# UniProt P31240, residues 82-190: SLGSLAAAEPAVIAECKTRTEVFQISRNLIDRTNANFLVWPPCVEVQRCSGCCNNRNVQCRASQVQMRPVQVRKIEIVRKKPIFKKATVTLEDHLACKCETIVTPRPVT
# Key:
# [1] = molecular target: T1, neurturin (NRTN) (human) (UniProt Q99748); experiment: ELISA; by the methods: plates coated with 100 nM PlGF-2, AREG or NRTN, ECM proteins at increasing concentration in PBS-T with 0.1% BSA, detected with HRP-conjugated antibodies against ECM proteins; KD from a one site specific binding model (the legend of Fig. 1e tells the reverse orientation); both purified
# T1 sequence: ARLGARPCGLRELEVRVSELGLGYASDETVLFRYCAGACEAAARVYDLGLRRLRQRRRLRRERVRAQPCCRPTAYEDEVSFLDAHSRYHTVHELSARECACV
# [2] = molecular target: T2, placenta growth factor PlGF-2 (human) (UniProt P49763); experiment: as above
# T2 sequence: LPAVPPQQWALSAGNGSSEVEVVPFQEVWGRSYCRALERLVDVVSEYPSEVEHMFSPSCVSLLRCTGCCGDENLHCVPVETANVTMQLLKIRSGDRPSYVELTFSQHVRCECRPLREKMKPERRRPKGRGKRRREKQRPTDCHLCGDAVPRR
# [3] = molecular target: T3, amphiregulin (AREG) (human) (UniProt P15514); experiment: as above
# T3 sequence: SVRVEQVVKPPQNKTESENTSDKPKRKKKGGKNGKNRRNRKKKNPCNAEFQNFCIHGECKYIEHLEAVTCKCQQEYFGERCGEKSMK
# [4] = molecular target: T1, neurturin (NRTN) (human); experiment: ELISA; plates coated with 100 nM protein candidate or BSA, blocked with 1% BSA; 100 nM ECM protein in PBS-T with 0.1% BSA, 1 h at 37 °C; bound ECM protein detected with HRP-conjugated antibodies; fold change over BSA control; both purified
# [5] = molecular target: T3, amphiregulin (AREG) (human); experiment: as above
# [6] = molecular target: human vitronectin (human) (UniProt P04004); experiment: ELISA; plates coated with 100 nM ECM protein in PBS; PDGF-BB or IL-1Ra variants at increasing concentrations in PBS-T with 0.1% BSA, 1 h at room temperature; detected with biotinylated antibodies; KD from a one site specific binding model; both purified
# [7] = molecular target: human tenascin C (human) (UniProt P24821); experiment: as above
binding [1],binding [2],binding [3],binding [4],binding [5],binding [6],binding [7],Substance
binds,binds,binds,binds,binds,,,human tenascin C (from UniProt P24821 23-2201)
,,,,,binds,binds,"platelet-derived growth factor-BB (PDGF-BB), wild type (from UniProt P31240 82-190) (ligand)"

# — paper PMC10202959
